Source: patent US20200093890A1, “COMPOSITIONS AND METHODS FOR TREATING ALZHEIMER'S DISEASE” (CASE WESTERN RESERVE UNIVERSITY, priority 2017, published 2020)
No constants are given. Whether binding was seen depends on the method and setting. In cells and extracts the contact can be indirect. Some binding calls cover weakened binding; strength is not graded here.

Chains of the proteins cited; added tags and fusions are not shown. Residues count along the entry.
UniProt P56818, residues 46-501: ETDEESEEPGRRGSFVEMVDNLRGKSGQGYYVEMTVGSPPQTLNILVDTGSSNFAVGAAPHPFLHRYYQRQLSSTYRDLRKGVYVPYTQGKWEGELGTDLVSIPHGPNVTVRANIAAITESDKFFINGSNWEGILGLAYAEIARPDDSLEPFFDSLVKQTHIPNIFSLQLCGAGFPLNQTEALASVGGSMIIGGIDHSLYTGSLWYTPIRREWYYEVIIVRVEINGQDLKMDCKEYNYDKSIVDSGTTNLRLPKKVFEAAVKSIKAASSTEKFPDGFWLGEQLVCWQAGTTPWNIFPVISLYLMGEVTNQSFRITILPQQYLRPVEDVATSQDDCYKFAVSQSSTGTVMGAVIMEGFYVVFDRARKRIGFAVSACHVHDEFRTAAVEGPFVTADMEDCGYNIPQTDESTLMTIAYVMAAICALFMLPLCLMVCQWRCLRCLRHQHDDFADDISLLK
UniProt Q64605, residues 30-1907: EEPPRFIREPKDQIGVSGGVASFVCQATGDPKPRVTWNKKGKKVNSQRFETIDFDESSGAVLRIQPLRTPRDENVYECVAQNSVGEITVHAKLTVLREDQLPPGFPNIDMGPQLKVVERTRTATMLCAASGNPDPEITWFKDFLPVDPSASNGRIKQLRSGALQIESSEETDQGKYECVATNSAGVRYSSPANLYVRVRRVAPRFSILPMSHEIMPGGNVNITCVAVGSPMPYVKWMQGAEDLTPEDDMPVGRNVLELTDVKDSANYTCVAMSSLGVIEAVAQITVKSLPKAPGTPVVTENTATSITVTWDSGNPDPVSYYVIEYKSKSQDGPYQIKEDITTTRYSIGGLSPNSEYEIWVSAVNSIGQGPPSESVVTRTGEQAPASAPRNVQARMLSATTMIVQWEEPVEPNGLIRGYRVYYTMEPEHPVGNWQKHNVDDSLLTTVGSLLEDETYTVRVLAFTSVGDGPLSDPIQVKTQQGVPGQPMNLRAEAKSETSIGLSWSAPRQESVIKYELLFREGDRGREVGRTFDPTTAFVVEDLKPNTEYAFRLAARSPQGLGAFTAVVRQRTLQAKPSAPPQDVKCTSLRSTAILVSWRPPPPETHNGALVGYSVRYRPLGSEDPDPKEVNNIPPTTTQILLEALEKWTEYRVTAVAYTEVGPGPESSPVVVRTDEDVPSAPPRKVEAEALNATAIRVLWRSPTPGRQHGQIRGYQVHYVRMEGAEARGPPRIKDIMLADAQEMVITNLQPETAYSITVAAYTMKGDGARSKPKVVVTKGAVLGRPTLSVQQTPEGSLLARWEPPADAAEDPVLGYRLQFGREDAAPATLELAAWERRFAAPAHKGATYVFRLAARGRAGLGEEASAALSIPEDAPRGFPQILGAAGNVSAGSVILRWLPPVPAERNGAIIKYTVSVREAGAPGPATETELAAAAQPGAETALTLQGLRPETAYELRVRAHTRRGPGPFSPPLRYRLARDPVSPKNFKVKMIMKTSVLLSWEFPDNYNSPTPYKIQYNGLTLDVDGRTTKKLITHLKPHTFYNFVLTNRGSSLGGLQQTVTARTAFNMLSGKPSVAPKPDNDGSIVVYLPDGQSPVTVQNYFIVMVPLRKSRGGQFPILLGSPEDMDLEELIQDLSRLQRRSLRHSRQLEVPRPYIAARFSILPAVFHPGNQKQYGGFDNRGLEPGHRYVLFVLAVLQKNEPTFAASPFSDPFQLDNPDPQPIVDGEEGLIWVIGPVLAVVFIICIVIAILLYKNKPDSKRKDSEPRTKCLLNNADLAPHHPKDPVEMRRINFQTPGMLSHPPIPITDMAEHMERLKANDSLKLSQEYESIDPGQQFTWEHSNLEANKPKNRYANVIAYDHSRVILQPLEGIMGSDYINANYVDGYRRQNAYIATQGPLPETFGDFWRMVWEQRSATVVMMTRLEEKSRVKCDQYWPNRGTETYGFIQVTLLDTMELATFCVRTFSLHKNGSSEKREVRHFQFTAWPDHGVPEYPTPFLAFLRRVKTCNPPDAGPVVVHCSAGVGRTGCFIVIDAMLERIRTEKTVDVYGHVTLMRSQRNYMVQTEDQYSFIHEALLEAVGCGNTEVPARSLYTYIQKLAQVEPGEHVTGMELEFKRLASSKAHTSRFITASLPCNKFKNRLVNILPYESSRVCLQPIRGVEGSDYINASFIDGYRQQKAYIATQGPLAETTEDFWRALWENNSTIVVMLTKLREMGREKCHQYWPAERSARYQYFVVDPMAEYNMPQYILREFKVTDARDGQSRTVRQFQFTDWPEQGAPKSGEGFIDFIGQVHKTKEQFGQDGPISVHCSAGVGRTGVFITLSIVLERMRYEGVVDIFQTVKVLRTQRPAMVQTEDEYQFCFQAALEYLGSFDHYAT

Assays:
[1] = biological target: β-amyloid precursor protein (APP), full length, mouse, endogenous in forebrain lysate (mouse) (UniProt P12023); test: co-immunoprecipitation from mouse brain homogenates in buffers of serially increased detergent stringency
[2] = biological target: β-amyloid precursor protein (APP), full length, mouse, endogenous in forebrain lysate (mouse) (UniProt P12023); test: co-immunoprecipitation from mouse forebrain lysate, IP with anti-BACE1 antibody, blot for full length APP, NP40 buffer with 0 to 0.4% SDS
[3] = biological target: β-amyloid precursor protein (APP), rat, endogenous in brain homogenate (rat) (UniProt P08592); test: co-immunoprecipitation from rat brain homogenates, western blot

Substance | binding [1] | binding [2] | binding [3]
BACE1, the β-secretase in the brain, mouse, endogenous in forebrain lysate (from UniProt P56818 46-501) (enzyme) | binds | binds | 
PTPσ (protein tyrosine phosphatase sigma), rat, endogenous in brain homogenate (from UniProt Q64605 30-1907) (receptor) |  |  | binds
